Test results: the supplement of paper PMC8728848
The list shows a part of the results.

Assays:
Experiment in all cases: glycan array binding signal (z-score within array); higher = stronger binding
Details in all cases: glycan notation: IUPAC condensed, linker removed
[1] = molecular target: Neu5Ac(a2-3)Gal(b1-4)GlcNAc
Procedure, shortened: (§1)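 Negative Z-scores can be read as non-binding. The Z-score is calculated within each array and then averaged across arrays of one protein sequence at different concentrations or buffers and across linkers. Arrays, 3228 in all, were curated from the Consortium for Functional Glycomics database and kept only where the protein sequence was available.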

[2] = molecular target: Neu5Ac(a2-3)Gal(b1-4)GlcNAc(b1-2)Man(a1-3)[GlcNAc(b1-2)Man(b1-4)GlcNAc(b1-2)Man(a1-6)]Man(b1-4)GlcNAc(b1-4)GlcNAc
Procedure, shortened: as §1

[3] = molecular target: Neu5Ac(a2-3)Gal(b1-4)GlcNAc(b1-2)Man(a1-3)[Neu5Ac(a2-6)Gal(b1-4)GlcNAc(b1-2)Man(a1-6)]Man(b1-4)GlcNAc(b1-4)GlcNAc
Procedure, shortened: as §1

[4] = molecular target: Neu5Ac(a2-3)Gal(b1-4)GlcNAc(b1-3)Gal(b1-3)GlcNAc
Procedure, shortened: as §1

[5] = molecular target: Neu5Ac(a2-3)Gal(b1-4)GlcNAc(b1-3)Gal(b1-4)GlcNAc
Procedure, shortened: as §1

[6] = molecular target: Neu5Ac(a2-3)Gal(b1-4)GlcNAc(b1-3)Gal(b1-4)GlcNAc(b1-3)Gal(b1-4)GlcNAc
Procedure, shortened: as §1

[7] = molecular target: Neu5Ac(a2-3)Gal(b1-4)GlcNAc(b1-3)Gal(b1-4)[Fuc(a1-3)]GlcNAc
Procedure, shortened: as §1

[8] = molecular target: Neu5Ac(a2-3)Gal(b1-4)GlcNAc(b1-3)GalNAc
Procedure, shortened: as §1

[9] = molecular target: Neu5Ac(a2-3)Gal(b1-4)GlcNAc(b1-6)[Gal(b1-3)]GalNAc
Procedure, shortened: as §1

[10] = molecular target: Neu5Ac(a2-3)Gal(b1-4)GlcNAc(b1-6)[Neu5Ac(a2-3)Gal(b1-3)]GalNAc
Procedure, shortened: as §1

[11] = molecular target: Neu5Ac(a2-3)Gal(b1-4)GlcNAc6S
Procedure, shortened: as §1

[12] = molecular target: Neu5Ac(a2-3)Gal(b1-4)[Fuc(a1-3)]GlcNAc
Procedure, shortened: as §1

[13] = molecular target: Neu5Ac(a2-3)Gal(b1-4)[Fuc(a1-3)]GlcNAc(b1-3)Gal
Procedure, shortened: as §1

[14] = molecular target: Neu5Ac(a2-3)Gal(b1-4)[Fuc(a1-3)]GlcNAc(b1-3)Gal(b1-4)GlcNAc
Procedure, shortened: as §1

[15] = molecular target: Neu5Ac(a2-3)Gal(b1-4)[Fuc(a1-3)]GlcNAc(b1-3)Gal(b1-4)[Fuc(a1-3)]GlcNAc(b1-3)Gal(b1-4)[Fuc(a1-3)]GlcNAc
Procedure, shortened: as §1

[16] = molecular target: Neu5Ac(a2-3)Gal(b1-4)[Fuc(a1-3)]GlcNAc(b1-3)GalNAc
Procedure, shortened: as §1

[17] = molecular target: Neu5Ac(a2-3)Gal(b1-4)[Fuc(a1-3)]GlcNAc(b1-6)[Gal(b1-3)]GalNAc
Procedure, shortened: as §1

[18] = molecular target: Neu5Ac(a2-3)Gal(b1-4)[Fuc(a1-3)]GlcNAc(b1-6)[Neu5Ac(a2-3)Gal(b1-3)]GalNAc
Procedure, shortened: as §1

[19] = molecular target: Neu5Ac(a2-3)Gal(b1-4)[Fuc(a1-3)]GlcNAc6S
Procedure, shortened: as §1

[20] = molecular target: Neu5Ac(a2-3)Gal6S(b1-4)GlcNAc
Procedure, shortened: as §1

[21] = molecular target: Neu5Ac(a2-3)Gal6S(b1-4)[Fuc(a1-3)]GlcNAc
Procedure, shortened: as §1

Neu5Ac(a2-3)GalNAc = molecular target: Neu5Ac(a2-3)GalNAc
Procedure, shortened: as §1

[22] = molecular target: Neu5Ac(a2-3)GalNAc(b1-4)GlcNAc
Procedure, shortened: as §1

[23] = molecular target: Neu5Ac(a2-3)[GalNAc(b1-4)]Gal(b1-4)Glc
Procedure, shortened: as §1

[24] = molecular target: Neu5Ac(a2-3)[GalNAc(b1-4)]Gal(b1-4)GlcNAc
Procedure, shortened: as §1

[25] = molecular target: Neu5Ac(a2-3)[GalNAc(b1-4)]Gal(b1-4)GlcNAc(b1-3)GalNAc
Procedure, shortened: as §1

[26] = molecular target: Neu5Ac(a2-3)[Neu5Ac(a2-6)]GalNAc
Procedure, shortened: as §1

Neu5Ac(a2-6)Gal = molecular target: Neu5Ac(a2-6)Gal
Procedure, shortened: as §1

Neu5Ac(a2-6)Gal(b1-4)Glc = molecular target: Neu5Ac(a2-6)Gal(b1-4)Glc
Procedure, shortened: as §1

[27] = molecular target: Neu5Ac(a2-6)Gal(b1-4)GlcNAc
Procedure, shortened: as §1

[28] = molecular target: Neu5Ac(a2-6)Gal(b1-4)GlcNAc(b1-2)Man(a1-3)Man(b1-4)GlcNAc(b1-4)GlcNAc
Procedure, shortened: as §1

[29] = molecular target: Neu5Ac(a2-6)Gal(b1-4)GlcNAc(b1-2)Man(a1-3)[Gal(b1-4)GlcNAc(b1-2)Man(a1-6)]Man(b1-4)GlcNAc(b1-4)GlcNAc
Procedure, shortened: as §1

[30] = molecular target: Neu5Ac(a2-6)Gal(b1-4)GlcNAc(b1-2)Man(a1-3)[GlcNAc(b1-2)Man(a1-6)]Man(b1-4)GlcNAc(b1-4)GlcNAc
Procedure, shortened: as §1

[31] = molecular target: Neu5Ac(a2-6)Gal(b1-4)GlcNAc(b1-2)Man(a1-3)[GlcNAc(b1-2)Man(b1-4)GlcNAc(b1-2)Man(a1-6)]Man(b1-4)GlcNAc(b1-4)GlcNAc
Procedure, shortened: as §1

[32] = molecular target: Neu5Ac(a2-6)Gal(b1-4)GlcNAc(b1-2)Man(a1-3)[Man(a1-6)]Man(b1-4)GlcNAc(b1-4)GlcNAc
Procedure, shortened: as §1

B1: AcfC (Vibrio cholerae), Q57410 (protein)
chain: MKSKNRFLLISLLSFSTSVFADVNLYGPGGPHVPLIKVAESFEKSQSKRVNITFGPQATWNDKAKKNADILFGASEHSALAIAEGHSERFSKFNIHPVFMREAIILVKKGNPKNIKGMADLLKPGIGIVVNDGAGVSNTSGTAVWEDSVGRMKNVEKLQAFRSNIHVFAPNSGSARKAFVDGEDIDAWITWVDWAIANPTIGDMVRMEDEYRIYRDFNVVLAKNPSSEAIDFFDYLTKSKDAEAIFQHYGWFK
glycan array binding signal (z-score) [1]: -0.54 | glycan array binding signal (z-score) [2]: 0.125 | glycan array binding signal (z-score) [3]: -0.901 | glycan array binding signal (z-score) [4]: -1.02 | glycan array binding signal (z-score) [5]: -0.624 | glycan array binding signal (z-score) [6]: 0.074 | glycan array binding signal (z-score) [7]: -0.682 | glycan array binding signal (z-score) [8]: -0.182 | glycan array binding signal (z-score) [9]: 0.034 | glycan array binding signal (z-score) [10]: -1.98 | glycan array binding signal (z-score) [11]: 0.582 | glycan array binding signal (z-score) [12]: -1.18 | glycan array binding signal (z-score) [13]: -1.14 | glycan array binding signal (z-score) [14]: -0.127 | glycan array binding signal (z-score) [15]: -0.219 | glycan array binding signal (z-score) [16]: 6.97 | glycan array binding signal (z-score) [17]: -0.267 | glycan array binding signal (z-score) [18]: -0.381 | glycan array binding signal (z-score) [19]: -1.09 | glycan array binding signal (z-score) [20]: 0.355 | glycan array binding signal (z-score) [21]: -0.261 | glycan array binding signal (z-score) (Neu5Ac(a2-3)GalNAc): -3.15 | glycan array binding signal (z-score) [22]: -1.23 | glycan array binding signal (z-score) [23]: -1.07 | glycan array binding signal (z-score) [24]: -0.717 | glycan array binding signal (z-score) [25]: 0.126 | glycan array binding signal (z-score) [26]: -0.27 | glycan array binding signal (z-score) (Neu5Ac(a2-6)Gal): 2.2 | glycan array binding signal (z-score) (Neu5Ac(a2-6)Gal(b1-4)Glc): 0.883 | glycan array binding signal (z-score) [27]: 0.03 | glycan array binding signal (z-score) [28]: -1.47 | glycan array binding signal (z-score) [29]: 1.8 | glycan array binding signal (z-score) [30]: -0.405 | glycan array binding signal (z-score) [31]: -0.611 | glycan array binding signal (z-score) [32]: -0.009
